The other results are listed elsewhere or left out.
Columns and labels:
Assay in all cases: log2 fold change, soluble protein after heating vs DMSO (PISA); higher = thermal stabilisation; K562 cells, 10 uM, 30 min; active = over 0.2 and 3.5 SD of the protein, either way, in both replicates (recomputed)
[1] = compound: NC(=O)Nc1cc(-c2cccc(F)c2)sc1C(=O)N[C@H]1CCCNC1
How it was run: (§1)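 Thermal stability values are relative to control samples and come from duplicates. They are expressed as log2 fold changes. For measurement, K562 cells (2×10^6 cells/mL) received 10 μM compound for 30 min, and aliquots were heated for 3 min over 48°C-58°C, pooled, and extracted at 4°C in PBS with 0.5% NP-40. Soluble protein, the supernatant after 21,000xg for 90 min, was quantified by TMTpro 16plex LC-MS/MS with equalised channel sums.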

Amino acid sequences for entries named in this document (tags omitted). A change or cut given only in a name is not applied to a line headed by its entry.
UniProt Q9UID3: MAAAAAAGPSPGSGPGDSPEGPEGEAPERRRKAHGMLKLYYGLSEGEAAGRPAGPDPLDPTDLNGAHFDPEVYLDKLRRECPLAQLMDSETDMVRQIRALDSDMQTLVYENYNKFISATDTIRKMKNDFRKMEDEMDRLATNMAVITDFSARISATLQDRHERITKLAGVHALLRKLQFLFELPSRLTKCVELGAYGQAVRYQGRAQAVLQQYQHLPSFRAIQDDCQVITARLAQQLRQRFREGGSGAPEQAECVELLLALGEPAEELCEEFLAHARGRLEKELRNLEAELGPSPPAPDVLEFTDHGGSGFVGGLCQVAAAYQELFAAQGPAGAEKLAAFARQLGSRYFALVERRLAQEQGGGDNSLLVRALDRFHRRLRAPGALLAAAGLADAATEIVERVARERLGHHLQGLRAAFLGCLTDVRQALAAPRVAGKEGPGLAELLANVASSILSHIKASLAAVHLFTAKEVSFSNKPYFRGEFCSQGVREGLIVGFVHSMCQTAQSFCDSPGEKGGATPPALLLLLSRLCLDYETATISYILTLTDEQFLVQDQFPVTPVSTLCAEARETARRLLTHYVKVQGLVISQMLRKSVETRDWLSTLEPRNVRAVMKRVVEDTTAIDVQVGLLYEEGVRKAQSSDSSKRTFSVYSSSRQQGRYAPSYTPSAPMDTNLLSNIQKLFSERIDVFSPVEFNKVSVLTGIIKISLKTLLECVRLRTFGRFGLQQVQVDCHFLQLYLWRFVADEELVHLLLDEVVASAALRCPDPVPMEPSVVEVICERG
UniProt Q5MNZ6: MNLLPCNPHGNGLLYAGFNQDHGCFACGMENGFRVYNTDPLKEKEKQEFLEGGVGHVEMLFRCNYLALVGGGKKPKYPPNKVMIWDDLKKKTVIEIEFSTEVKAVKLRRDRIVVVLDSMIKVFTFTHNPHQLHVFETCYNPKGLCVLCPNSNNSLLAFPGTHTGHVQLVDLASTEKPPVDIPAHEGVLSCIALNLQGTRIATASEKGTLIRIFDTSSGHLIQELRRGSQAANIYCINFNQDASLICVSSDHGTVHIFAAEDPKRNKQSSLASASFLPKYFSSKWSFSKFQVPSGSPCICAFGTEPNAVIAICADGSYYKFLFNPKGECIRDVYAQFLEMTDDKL
UniProt Q8TBZ3: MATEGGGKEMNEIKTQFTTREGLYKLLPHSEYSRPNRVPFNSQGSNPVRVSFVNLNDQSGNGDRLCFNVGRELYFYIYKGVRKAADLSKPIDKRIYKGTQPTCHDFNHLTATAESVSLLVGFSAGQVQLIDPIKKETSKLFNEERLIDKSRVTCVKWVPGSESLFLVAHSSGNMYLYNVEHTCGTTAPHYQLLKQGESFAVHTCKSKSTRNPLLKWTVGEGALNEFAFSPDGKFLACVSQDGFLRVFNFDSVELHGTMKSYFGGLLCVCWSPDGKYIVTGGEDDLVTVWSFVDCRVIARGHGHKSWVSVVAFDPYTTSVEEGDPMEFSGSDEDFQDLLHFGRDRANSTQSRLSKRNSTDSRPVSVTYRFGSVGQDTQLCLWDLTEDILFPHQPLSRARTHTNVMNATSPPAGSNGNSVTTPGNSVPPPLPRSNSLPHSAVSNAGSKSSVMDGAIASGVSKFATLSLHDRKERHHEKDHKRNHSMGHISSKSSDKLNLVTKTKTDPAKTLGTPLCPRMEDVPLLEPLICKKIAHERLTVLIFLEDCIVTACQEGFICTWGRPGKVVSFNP
UniProt Q99986: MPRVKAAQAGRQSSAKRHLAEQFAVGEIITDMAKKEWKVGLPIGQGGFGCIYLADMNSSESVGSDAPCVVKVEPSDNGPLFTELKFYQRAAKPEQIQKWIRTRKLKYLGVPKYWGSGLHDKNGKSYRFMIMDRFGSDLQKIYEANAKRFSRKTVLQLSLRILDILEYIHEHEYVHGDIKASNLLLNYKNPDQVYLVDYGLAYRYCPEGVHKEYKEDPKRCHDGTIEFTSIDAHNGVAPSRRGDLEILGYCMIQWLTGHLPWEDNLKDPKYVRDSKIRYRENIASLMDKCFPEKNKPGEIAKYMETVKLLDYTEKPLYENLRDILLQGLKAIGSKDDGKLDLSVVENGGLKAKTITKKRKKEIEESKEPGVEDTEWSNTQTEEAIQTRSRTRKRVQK
UniProt O95785: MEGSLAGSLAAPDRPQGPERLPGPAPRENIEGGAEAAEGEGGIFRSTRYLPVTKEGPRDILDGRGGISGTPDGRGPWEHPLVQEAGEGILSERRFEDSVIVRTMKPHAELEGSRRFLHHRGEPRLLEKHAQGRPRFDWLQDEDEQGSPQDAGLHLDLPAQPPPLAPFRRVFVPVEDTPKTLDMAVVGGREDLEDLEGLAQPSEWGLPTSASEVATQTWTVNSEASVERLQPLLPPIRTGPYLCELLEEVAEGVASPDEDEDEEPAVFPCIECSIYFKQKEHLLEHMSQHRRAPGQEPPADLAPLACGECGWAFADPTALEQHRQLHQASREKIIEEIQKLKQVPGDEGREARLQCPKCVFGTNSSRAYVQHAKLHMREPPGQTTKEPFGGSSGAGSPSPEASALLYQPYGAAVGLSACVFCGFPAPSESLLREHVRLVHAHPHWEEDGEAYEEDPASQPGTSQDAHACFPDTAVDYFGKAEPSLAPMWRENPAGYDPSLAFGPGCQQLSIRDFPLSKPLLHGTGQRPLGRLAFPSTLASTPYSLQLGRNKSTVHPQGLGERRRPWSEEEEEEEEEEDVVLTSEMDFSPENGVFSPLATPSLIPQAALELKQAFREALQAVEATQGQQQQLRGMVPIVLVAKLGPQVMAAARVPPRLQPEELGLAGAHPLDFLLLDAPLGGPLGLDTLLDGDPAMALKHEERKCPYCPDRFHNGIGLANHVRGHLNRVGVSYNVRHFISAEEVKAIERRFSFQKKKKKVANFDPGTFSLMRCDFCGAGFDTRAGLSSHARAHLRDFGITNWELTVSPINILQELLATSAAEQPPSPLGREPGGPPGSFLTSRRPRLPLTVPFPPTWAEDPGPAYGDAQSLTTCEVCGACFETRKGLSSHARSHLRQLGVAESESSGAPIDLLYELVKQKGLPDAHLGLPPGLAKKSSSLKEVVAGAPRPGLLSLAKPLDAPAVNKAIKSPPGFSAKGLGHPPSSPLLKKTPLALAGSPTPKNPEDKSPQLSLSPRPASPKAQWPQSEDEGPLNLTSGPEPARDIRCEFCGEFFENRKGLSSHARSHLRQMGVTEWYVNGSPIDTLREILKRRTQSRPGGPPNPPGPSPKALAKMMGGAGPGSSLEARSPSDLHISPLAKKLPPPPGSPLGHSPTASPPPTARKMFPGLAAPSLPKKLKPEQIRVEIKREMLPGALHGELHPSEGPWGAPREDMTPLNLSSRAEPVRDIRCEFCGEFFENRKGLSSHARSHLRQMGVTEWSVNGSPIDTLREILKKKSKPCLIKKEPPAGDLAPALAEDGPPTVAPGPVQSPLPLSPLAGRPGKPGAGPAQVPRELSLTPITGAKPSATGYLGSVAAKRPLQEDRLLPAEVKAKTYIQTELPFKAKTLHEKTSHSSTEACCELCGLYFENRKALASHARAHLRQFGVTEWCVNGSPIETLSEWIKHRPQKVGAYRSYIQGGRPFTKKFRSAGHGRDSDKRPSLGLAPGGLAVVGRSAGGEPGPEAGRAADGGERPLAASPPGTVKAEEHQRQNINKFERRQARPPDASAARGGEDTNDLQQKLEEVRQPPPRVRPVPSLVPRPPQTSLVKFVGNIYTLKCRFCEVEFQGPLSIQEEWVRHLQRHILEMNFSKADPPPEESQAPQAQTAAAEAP
UniProt Q8IWB7: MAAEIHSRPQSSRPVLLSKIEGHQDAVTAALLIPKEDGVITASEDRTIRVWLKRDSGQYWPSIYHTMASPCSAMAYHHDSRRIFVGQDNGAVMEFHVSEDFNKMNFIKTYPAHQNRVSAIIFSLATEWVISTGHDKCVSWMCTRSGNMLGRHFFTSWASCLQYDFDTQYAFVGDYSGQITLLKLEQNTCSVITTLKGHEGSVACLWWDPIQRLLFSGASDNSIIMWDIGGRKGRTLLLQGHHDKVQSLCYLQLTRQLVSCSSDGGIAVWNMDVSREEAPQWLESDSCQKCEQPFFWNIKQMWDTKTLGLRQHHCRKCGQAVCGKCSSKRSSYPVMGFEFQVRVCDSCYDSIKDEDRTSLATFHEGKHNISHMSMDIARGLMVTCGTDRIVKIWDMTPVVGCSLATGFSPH
UniProt Q9H1Z4: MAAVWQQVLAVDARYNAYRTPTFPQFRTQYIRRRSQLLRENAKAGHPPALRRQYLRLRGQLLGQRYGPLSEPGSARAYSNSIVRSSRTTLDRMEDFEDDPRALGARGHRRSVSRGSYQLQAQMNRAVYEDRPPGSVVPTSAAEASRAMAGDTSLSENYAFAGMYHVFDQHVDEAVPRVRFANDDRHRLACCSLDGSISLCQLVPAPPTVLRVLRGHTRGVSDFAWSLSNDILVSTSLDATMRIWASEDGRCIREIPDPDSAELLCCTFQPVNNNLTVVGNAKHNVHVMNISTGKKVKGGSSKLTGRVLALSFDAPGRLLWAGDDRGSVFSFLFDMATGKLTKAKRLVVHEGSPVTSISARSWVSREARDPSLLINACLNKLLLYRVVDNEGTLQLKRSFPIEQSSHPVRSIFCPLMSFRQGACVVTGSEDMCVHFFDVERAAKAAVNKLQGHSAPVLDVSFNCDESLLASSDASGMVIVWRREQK
UniProt Q8IV63: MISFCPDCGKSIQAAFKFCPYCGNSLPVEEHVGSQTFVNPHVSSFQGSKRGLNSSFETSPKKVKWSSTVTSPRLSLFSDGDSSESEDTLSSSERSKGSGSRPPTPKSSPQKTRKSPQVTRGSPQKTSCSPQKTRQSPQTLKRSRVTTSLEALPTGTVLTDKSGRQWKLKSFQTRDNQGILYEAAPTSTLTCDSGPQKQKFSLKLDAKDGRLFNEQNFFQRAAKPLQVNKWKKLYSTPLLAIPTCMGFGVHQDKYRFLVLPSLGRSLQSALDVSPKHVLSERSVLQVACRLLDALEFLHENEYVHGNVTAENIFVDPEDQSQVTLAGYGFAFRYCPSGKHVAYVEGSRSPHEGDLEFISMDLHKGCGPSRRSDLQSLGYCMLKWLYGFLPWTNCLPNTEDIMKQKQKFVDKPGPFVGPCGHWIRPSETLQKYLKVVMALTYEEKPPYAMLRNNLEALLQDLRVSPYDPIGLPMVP
UniProt Q9H267: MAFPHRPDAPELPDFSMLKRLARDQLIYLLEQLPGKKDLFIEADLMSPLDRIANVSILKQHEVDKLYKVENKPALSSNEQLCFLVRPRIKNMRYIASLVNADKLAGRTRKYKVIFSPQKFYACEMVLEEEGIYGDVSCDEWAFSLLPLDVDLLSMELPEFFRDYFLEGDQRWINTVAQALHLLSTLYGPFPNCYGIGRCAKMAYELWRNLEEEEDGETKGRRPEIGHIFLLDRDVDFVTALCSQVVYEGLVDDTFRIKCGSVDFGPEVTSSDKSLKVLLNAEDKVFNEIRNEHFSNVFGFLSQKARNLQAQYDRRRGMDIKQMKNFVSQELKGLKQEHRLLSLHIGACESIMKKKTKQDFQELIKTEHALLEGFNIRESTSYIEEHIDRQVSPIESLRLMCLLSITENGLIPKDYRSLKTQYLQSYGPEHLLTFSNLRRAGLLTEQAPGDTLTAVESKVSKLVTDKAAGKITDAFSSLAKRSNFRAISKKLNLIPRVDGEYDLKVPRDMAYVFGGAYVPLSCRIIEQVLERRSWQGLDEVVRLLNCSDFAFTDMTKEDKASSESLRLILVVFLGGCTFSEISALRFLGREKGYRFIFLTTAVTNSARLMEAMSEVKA
UniProt Q8NEZ2: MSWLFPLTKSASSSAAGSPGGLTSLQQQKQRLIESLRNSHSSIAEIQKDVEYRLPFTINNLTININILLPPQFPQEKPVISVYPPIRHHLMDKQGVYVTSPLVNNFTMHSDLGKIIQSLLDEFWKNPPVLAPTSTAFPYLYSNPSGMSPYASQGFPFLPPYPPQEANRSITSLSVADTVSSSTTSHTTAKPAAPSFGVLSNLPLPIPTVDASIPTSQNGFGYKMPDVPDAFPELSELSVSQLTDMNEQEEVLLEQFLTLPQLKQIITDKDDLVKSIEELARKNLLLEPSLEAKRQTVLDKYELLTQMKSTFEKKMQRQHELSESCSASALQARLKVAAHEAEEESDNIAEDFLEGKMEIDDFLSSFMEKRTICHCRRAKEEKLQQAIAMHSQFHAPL

[2] = compound: NC(=O)c1cnc(N[C@@H]2CCCC[C@@H]2N)nc1Nc1cccc(-n2nccn2)c1
How it was run: as §1

[3] = compound: NC1(c2ccc(-c3nc4ccn5c(=O)[nH]nc5c4cc3-c3ccccc3)cc2)CCC1
How it was run: as §1

[4] = compound: NCC(=O)Nc1ccc(-n2nc(C(F)(F)F)cc2-c2ccc3c(ccc4ccccc43)c2)cc1
How it was run: as §1

entinostat = compound: Nc1ccccc1NC(=O)c1ccc(CNC(=O)OCc2cccnc2)cc1 [entinostat]
How it was run: as §1

vorinostat = compound: O=C(CCCCCCC(=O)Nc1ccccc1)NO [vorinostat]
How it was run: as §1

citarinostat = compound: O=C(CCCCCCNC(=O)c1cnc(N(c2ccccc2)c2ccccc2Cl)nc1)NO [citarinostat]
How it was run: as §1

silmitasertib = compound: O=C(O)c1ccc2c(c1)nc(Nc1cccc(Cl)c1)c1ccncc12 [silmitasertib]
How it was run: as §1

[5] = compound: O=C1NC(=O)C(c2cnc3ccccn23)=C1c1cn2c3c(cc(F)cc13)CN(C(=O)N1CCCCC1)CC2
How it was run: as §1

[6] = compound: c1cc(OCCN2CCCCC2)cc(-c2n[nH]c3ccc(-c4nnc[nH]4)cc23)c1
How it was run: as §1

Measured: log2 fold change

VKORC1L1, A0A3B3ISV4
inactive: [1] -0.008 | [2] -0.02 | [3] -0.051 | [4] -0.015 | entinostat -0.031 | vorinostat -0.094 | citarinostat -0.067 | silmitasertib 0.06 | [5] -0.062 | [6] -0.08

VPS51 (UniProt Q9UID3)
inactive: [1] -0.02 | [2] -0.119 | [3] -0.082 | [4] -0.048 | entinostat 0.07 | vorinostat -0.035 | citarinostat -0.002 | silmitasertib 0.068 | [5] 0.022 | [6] 0.1

WDR45B (UniProt Q5MNZ6)
inactive: [1] 0.169 | [2] -0.053 | [3] -0.094 | [4] -0.008 | entinostat 0.012 | vorinostat -0.006 | citarinostat 0.028 | silmitasertib 0.027 | [5] 0 | [6] 0.001

WDR20 isoform 7 (UniProt Q8TBZ3)
inactive: [1] -0.085 | [2] -0.136 | [3] 0.025 | [4] 0.046 | entinostat 0.038 | vorinostat 0.036 | citarinostat -0.016 | silmitasertib 0.151 | [5] 0.044 | [6] -0.117

3 consecutive records already listed, quoted:
VKORC1L1, A0A3B3ISV4
inactive: [1] -0.008 | [2] -0.02 | [3] -0.051 | [4] -0.015 | entinostat -0.031 | vorinostat -0.094 | citarinostat -0.067 | silmitasertib 0.06 | [5] -0.062 | [6] -0.08

VPS51 (UniProt Q9UID3)
inactive: [1] -0.02 | [2] -0.119 | [3] -0.082 | [4] -0.048 | entinostat 0.07 | vorinostat -0.035 | citarinostat -0.002 | silmitasertib 0.068 | [5] 0.022 | [6] 0.1

WDR45B (UniProt Q5MNZ6)
inactive: [1] 0.169 | [2] -0.053 | [3] -0.094 | [4] -0.008 | entinostat 0.012 | vorinostat -0.006 | citarinostat 0.028 | silmitasertib 0.027 | [5] 0 | [6] 0.001

(next part)

VRK1 (UniProt Q99986)
inactive: [1] -0.056 | [2] 0.025 | [3] -0.11 | [4] -0.144 | entinostat 0.059 | vorinostat 0.046 | citarinostat 0.023 | silmitasertib -0.028 | [5] -0.138 | [6] 0.063

WIZ (UniProt O95785)
inactive: [1] 0.043 | [2] -0.043 | [3] 0.032 | [4] -0.012 | entinostat 0.019 | vorinostat 0.085 | citarinostat 0.036 | silmitasertib -0.045 | [5] 0.04 | [6] -0.071

WDFY1 (UniProt Q8IWB7)
inactive: [1] -0.023 | [2] 0.097 | [3] -0.078 | [4] 0.043 | entinostat -0.007 | vorinostat -0.044 | citarinostat 0.009 | silmitasertib 0.076 | [5] -0.037 | [6] 0.024

WNK1 isoform 7 (UniProt Q9H4A3)
inactive: [1] 0.002 | [2] 0.001 | [3] -0.037 | [4] -0.042 | entinostat 0.008 | vorinostat -0.05 | citarinostat 0.009 | silmitasertib -0.062 | [5] -0.01 | [6] -0.063

WDR13 (UniProt Q9H1Z4)
inactive: [1] 0.005 | [2] -0.05 | [3] -0.024 | [4] -0.024 | entinostat -0.017 | vorinostat 0.051 | citarinostat 0.064 | silmitasertib 0.022 | [5] -0.065 | [6] 0.021

VRK3 (UniProt Q8IV63)
inactive: [1] 0.047 | [2] 0.102 | [3] -0.067 | [4] -0.053 | entinostat 0.056 | vorinostat 0.269 | citarinostat 0.029 | silmitasertib -0.023 | [5] -0.145 | [6] -0.121

VPS35 (UniProt Q96QK1)
inactive: [1] -0.013 | [2] -0.03 | [3] -0.147 | [4] -0.013 | entinostat 0.024 | vorinostat 0.025 | citarinostat 0.067 | silmitasertib -0.032 | [5] -0.049 | [6] -0.031

VPS33B (UniProt Q9H267)
inactive: [1] -0.013 | [2] -0.154 | [3] -0.118 | [4] -0.018 | entinostat 0.094 | vorinostat 0.072 | citarinostat 0.076 | silmitasertib -0.011 | [5] 0.017 | [6] -0.057

VPS37A (UniProt Q8NEZ2)
inactive: [1] -0.066 | [2] -0.021 | [3] -0.317 | [4] -0.051 | entinostat 0.121 | vorinostat 0.113 | silmitasertib 0.02 | [5] -0.198

VDAC1 (UniProt C9JI87)
inactive: [1] -0.145 | [2] -0.166 | [3] -0.065 | entinostat -0.158 | citarinostat -0.153 | silmitasertib 0.024 | [5] -0.09 | [6] 0.044

From the supplement of paper PMC10849652
